Test results: PubChem BioAssay (NCATS)
Where “and” joins values, the source holds several entries; their conditions need not be identical. Equal values may be shown once. The list shows a part of the results. Shown are side measurements of this screen, not its main read-out; they come without a call. Most of these compounds were active or inconclusive in the main read-out, so they are no random draw. For some of these results: The note in brackets gives the kind of curve behind each potency; many fits are weak.

Test: qHTS assay for small molecule antagonists of peroxisome proliferator-activated receptor gamma signaling (AID 588537)
Conditions: HEK293 PPARg-UAS-bla, beta-lactamase ratio, antagonist mode; measured here: W460 blue channel
Procedure, shortened: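 Step one: plate 3000 HEK293 UAS-bla cells per well in medium with 1% stripped serum and hold 6-6.5 h at 37 C. Step two: add compound and 50 nM agonist for 16 h. Step three: CCF4 loading, fluorescence read.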

Row | SMILES | AC50
1 | CC(C)(OOC(C)(C)c1ccccc1)c1ccccc1 | 0.00251 µM [falling, full curve, poor fit]
2 | C=CC=O | 50.1 µM [rising, single point]
3 | O=C(O)C(F)(F)C(F)(F)C(F)(F)C(F)(F)C(F)(F)C(F)(F)C(F)(F)C(F)(F)C(F)(F)F | 22.4 µM [falling, partial curve, poor fit]
4 | Oc1ccc(Cl)cc1Cc1ccccc1 | 50.1 µM [rising, single point]
5 | O=C(O)C(Br)CBr (stereo unspecified) | 70.8 µM [rising, single point]
6 | O=C(O)c1cccc(Cl)c1 | 0.00501 µM [falling, full curve, poor fit]
7 | CCOP(=O)(OCC)Oc1ccc([N+](=O)[O-])cc1 | 25.1 µM [falling, partial curve, poor fit]

Test: qHTS assay for small molecule antagonists of vitamin D receptor signaling (AID 588541)
Conditions: HEK293T VDR-UAS-bla, beta-lactamase ratio, antagonist mode; measured here: W460 blue channel (cell viability)

Row | SMILES | AC50
8 | O=C(O)COc1ccc(Cl)cc1 | 0.00251 µM [rising, full curve, poor fit]
9 | c1ccc2cc3c(ccc4ccccc43)cc2c1 | 35.5 µM [rising, partial curve, poor fit]
10 | OC(c1ccc(Cl)cc1)(c1cncnc1)c1ccccc1Cl (stereo unspecified) | 39.8 µM [falling, single point]
11 | COP(=O)(OC)OC(Br)C(Cl)(Cl)Br (stereo unspecified) | 44.7 µM [falling, partial curve, poor fit]
12 | COP(=S)(OC)Oc1nc(Cl)c(Cl)cc1Cl | 12.6 µM [rising, partial curve, poor fit]
13 | O=C1C=CC(=O)c2ccccc21 | 50.1 µM [falling, single point]
14 | S=C([S-])NCCNC(=S)[S-].[Zn+2] | 22.4 µM [rising, single point]
15 | S=C([S-])NCCNC(=S)[S-].[Mn+2] | 44.7 µM [falling, single point]
16 | CCCCCCCCCc1ccc(O)cc1 | 44.7 µM [falling, partial curve, poor fit]
17 | CCC[CH2][Sn]([Cl])([Cl])[CH2]CCC | 25.1 µM [falling, partial curve]

Test: qHTS assay for small molecule agonists of retinoid X receptor alpha signaling (AID 588544)
Conditions: HEK293T RXRa-UAS-bla, beta-lactamase reporter, 18 h; 530 nm emission

Row | SMILES | max response
18 | CCOP(=S)(OCC)SCn1nnc2ccccc2c1=O | 16%
19 | CCOP(=S)(OCC)SC(CCl)N1C(=O)c2ccccc2C1=O (stereo unspecified) | 9.31%
20 | CCOP(=O)(OCC)SCSP(=S)(OCC)OCC | 4.08%
21 | CCOP(=S)(NC(C)C)Oc1ccccc1C(=O)OC(C)C (stereo unspecified) | 7.54%
22 | O=C(Oc1ccccc1)c1ccccc1O | -8.98%
23 | C=CCC1=C(C)C(OC(=O)C2C(C=C(C)C)C2(C)C)CC1=O (stereo unspecified) | -10.5%
24 | CN(C)c1ccc(Cc2ccc(N(C)C)cc2)cc1 | -2.44% and 1.76%
25 | CCCOc1nn(C(=O)NS(=O)(=O)c2ccccc2C(=O)OC)c(=O)n1C | -11.3%
26 | O=[N+]([O-])c1ccc(Oc2ccc(Cl)cc2Cl)cc1 | 2.67%
27 | ClC1=C(Cl)[C@]2(Cl)[C@@H]3[C@@H]4C[C@@H]([C@H]5O[C@@H]45)[C@@H]3[C@@]1(Cl)C2(Cl)Cl | 6.92%
28 | C#CCN1CC(=O)N(COC(=O)[C@@H]2[C@@H](C=C(C)C)C2(C)C)C1=O | -20.9%
29 | CCC[CH2][Sn]([CH2]CCC)([CH2]CCC)[CH2]CCC | 1.38%
30 | O=C(O)COc1ccc(Cl)cc1Cl | 39.9% and 41.5% and 22%
31 | CCSC(C)CC1CC(=O)C(/C(CC)=N/OC/C=C/Cl)=C(O)C1 (stereo unspecified) | 15.6%
32 | OC(c1ccc(Cl)cc1)(c1cncnc1)c1ccccc1Cl (stereo unspecified) | 29.2%
33 | COP(=O)(OC)OC(Br)C(Cl)(Cl)Br (stereo unspecified) | 1.82%
34 | COP(=S)(OC)Oc1nc(Cl)c(Cl)cc1Cl | 56.4%
35 | CSC(=O)c1c(C(F)F)nc(C(F)(F)F)c(C(=O)SC)c1CC(C)C | -16.1%
36 | CCC(C)(C)c1ccc(O)c(C(C)(C)CC)c1 | -14.2%
37 | O=P(O)(O)CN(CP(=O)(O)O)CP(=O)(O)O | -17.9%
38 | CCOP(=S)(OCC)SCSP(=S)(OCC)OCC | 25.3%
39 | CCOP(=O)(OCC)Oc1cc(C)nc(C(C)C)n1 | 2.1%
40 | S=C([S-])NCCNC(=S)[S-].[Zn+2] | 90.6% and 32.8%
41 | S=C([S-])NCCNC(=S)[S-].[Mn+2] | 8.99% and 23%
42 | CCCCCCCCCc1ccc(O)cc1 | -68.9%
43 | c1ccc(-c2ccc(-c3ccccc3)cc2)cc1 | -2.81%
44 | CCC[CH2][Sn]([Cl])([Cl])[CH2]CCC | -18.7%
45 | O=C1C[C@@H]2OCC=C3CN4CC[C@]56c7ccccc7N1[C@H]5[C@H]2[C@H]3C[C@H]46 | -5.34%
46 | CCOc1ccc(C(C)(C)COCc2cccc(Oc3ccccc3)c2)cc1 | -13.4%

Ordered by molecular weight (low to high): part of the list above
Row | SMILES | max response
39 | CCOP(=O)(OCC)Oc1cc(C)nc(C(C)C)n1 | 2.1%
18 | CCOP(=S)(OCC)SCn1nnc2ccccc2c1=O | 16%
46 | CCOc1ccc(C(C)(C)COCc2cccc(Oc3ccccc3)c2)cc1 | -13.4%
